Experimental data reported in patent publication US20180016344A1.
Substitutions are numbered along the chain they refer to. Results are given in words; binding and its absence hold for the method and conditions named. Some entries that bind do so weakly or less than the wild type. Blank lines part the entries; values can stand above or below the binder they belong to.

Protein sequences, listed by entry. Tags and fused reporters are not part of them. Lines headed by an entry give the natural chain unless they say otherwise; changes in a name come on top.
UniProt O14763: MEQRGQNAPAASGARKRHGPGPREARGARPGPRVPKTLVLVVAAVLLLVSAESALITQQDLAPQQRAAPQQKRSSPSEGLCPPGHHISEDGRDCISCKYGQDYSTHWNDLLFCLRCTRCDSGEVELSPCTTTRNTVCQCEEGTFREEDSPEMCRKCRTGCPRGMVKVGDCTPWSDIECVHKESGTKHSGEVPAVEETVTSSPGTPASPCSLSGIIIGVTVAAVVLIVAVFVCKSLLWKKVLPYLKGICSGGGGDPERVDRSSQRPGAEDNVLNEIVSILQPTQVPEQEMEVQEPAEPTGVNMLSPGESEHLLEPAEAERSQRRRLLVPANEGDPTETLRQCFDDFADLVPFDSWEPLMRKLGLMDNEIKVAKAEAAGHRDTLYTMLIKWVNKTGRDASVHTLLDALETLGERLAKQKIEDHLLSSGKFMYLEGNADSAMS

How the values were obtained:
human DR5 (human) [1] = biological target: human DR5 (human) (UniProt O14763); experiment: legend of FIG. 5
human DR5 (human) [2] = biological target: human DR5 (human) (UniProt O14763); experiment: antibody titration read as MFI (log axis) against concentration in nM; the text does not describe the assay format or how DR5 was presented (Example 2)
[3] = biological target: soluble human DR5 (tagged with histidine) (human) (UniProt O14763); experiment: sandwich assay: soluble His-tagged human DR5 coat, diabody, then biotin-conjugated CD3
[4] = biological target: soluble human DR5 (tagged with histidine) (human) (UniProt O14763); experiment: legend of FIG. 11
[5] = biological target: soluble human DR5 (tagged with histidine) (human) (UniProt O14763); experiment: sandwich binding assay: shDR5-His (0.5 µg/mL) coated, diabody titrated (nM), CD3-biotin detected, read as RLU

B1: DR5 mAb 1 (antibody, V domains shown)
VH: EVKFLESGGGLVQPGGSLKLSCVASGFDFSRYWMSWVRQAPGKGLEWIGEINPDSNTINYTPSLKDKFIISRDNAKNTLYLQMTKVRSEDTALYYCTRRAYYGNPAWFAYWGQGTLVTVSS
VL: DIVLTQSPASLAVSLGQRATISCRASKSVSSSGYSYMHWYQQKPGQPPKVLIFLSSNLDSGVPARFSGSGSGTDFTLNIHPVEDGDAATYYCQHSRDLPPTFGGGTKLEIK
binding (human DR5 (human) [1]): binds | binding (human DR5 (human) [2]): binds

B2: hDR5 mAb 2 (2.3)×CD3 mAb 2 (bispecific antibody)
chain 1: DIQMTQSPSFLSASVGDRVTITCRASQDVNTAVAWYQQKPGKAPKLLIYWASTRHTGVPDRFSGSGSGTDFTLTISSLQPEDVATYYCQQHYITPWTFGGGTKLEIKGGGSGGGGEVQLVESGGGLVQPGGSLRLSCAASGFTFSTYAMNWVRQAPGKGLEWVGRIRSKYNNYATYYADSVKGRFTISRDDSKNSLYLQMNSLKTEDTAVYYCVRHGNFGNSYVSWFAYWGQGTLVTVSSASTKGEVAACEKEVAALEKEVAALEKEVAALEK
chain 2: QAVVTQEPSLTVSPGGTVTLTCRSSTGAVTTSNYANWVQQKPGQAPRGLIGGTNKRAPWTPARFSGSLLGGKAALTITGAQAEDEADYYCALWYSNLWVFGGGTKLTVLGGGGSGGGGQVQLVQSGAEVKKPGASVKVSCKASGYTFTEYILHWVRQAPGQGLEWMGWFYPGNNNIKYNEKFKDRVTITADKSTSTVYMELSSLRSEDTAVYYCARHEQGPGYFDYWGQGTLVTVSSASTKGKVAACKEKVAALKEKVAALKEKVAALKE
binding [3]: binds | binding [4]: binds | binding [5]: binds

B5: DR5 mAb 2 (antibody, V domains shown)
VH: KVQLQQSGAELVKPGASVKLSCKASGYTFTEYILHWVKQKSGQGLEWIGWFYPGNNNIKYNEKFKDKATLTADKSSSTVYMELSRLTSEDSAVYFCARHEQGPGYFDYWGQGTTLTVSS
VL: DIVMTQSHKFMSTSVGDRVSITCKASQDVNTAVAWYQQKPGQSPKLLIYWASTRHTGVPDRFTGSGSGTDYTLTIKSVQAEDLTLYYCQQHYITPWTFGGGTKLEIK
binding (human DR5 (human) [1]): binds | binding (human DR5 (human) [2]): binds

B6: hDR5 mAb 2 (2.2)×CD3 mAb 2 (bispecific antibody)
chain 1: B2 chain 1 with R24K, D60S
chain 2: B2 chain 2
binding [3]: binds | binding [4]: binds | binding [5]: binds

Now from value to binder:

binding [3]: binds | binding [4]: binds | binding [5]: binds
B3: hDR5 mAb 2 (2.4)×CD3 mAb 2 (bispecific antibody)
chain 1: B2 chain 1 with D60S, V83I
chain 2: B2 chain 2

binding [3]: binds | binding [4]: binds | binding [5]: binds
B4: hDR5 mAb 2 (2.5)×CD3 mAb 2 (bispecific antibody)
chain 1: B2 chain 1 with V83I
chain 2: B2 chain 2
